# Test results as given in the supplement of paper PMC8728848.
# This is one part of the list.
# B1: Flo10 (Saccharomyces cerevisiae), P36170 (protein)
# chain: MPVAARYIFLTGLFLLSVANVALGTTEACLPAGEKKNGMTINFYQYSLKDSSTYSNPSYMAYGYADAEKLGSVSGQTKLSIDYSIPCNGASDTCACSDDDATEYSASQVVPVKRGVKLCSDNTTLSSKTEKRENDDCDQGAAYWSSDLFGFYTTPTNVTVEMTGYFLPPKTGTYTFGFATVDDSAILSVGGNVAFECCKQEQPPITSTDFTINGIKPWNADAPTDIKGSTYMYAGYYYPIKIVYSNAVSWGTLPVSVVLPDGTEVNDDFEGYVFSFDDNATQAHCSVPNPAEHARTCVSSATSSWSSSEVCTECTETESTSYVTPYVTSSSWSSSEVCTECTETESTSTSTPYVTSSSSSSSEVCTECTETESTSYVTPYVSSSTAAANYTSSFSSSSEVCTECTETESTSTSTPYVTSSSWSSSEVCTECTETESTSYVTPYVSSSTAAANYTSSFSSSSEVCTECTETESTSTSTPYVTSSSSSSSEVCTECTETESTSYVTPYVSSSTAAANYTSSFSSSSEVCTECTETESTSTSTPYVTSSSWSSSEVCTECTETESTSYVTPYVSSSTAAANYTSSFSSSSEVCTECTETESTSTSTPYATSSTGTATSFTASTSNTMTSLVQTDTTVSFSLSSTVSEHTNAPTSSVESNASTFISSNKGSVKSYVTSSIHSITPMYPSNQTVTSSSVVSTPITSESSESSASVTILPSTITSEFKPSTMKTKVVSISSSPTNLITSYDTTSKDSTVGSSTSSVSLISSISLPSSYSASSEQIFHSSIVSSNGQALTSFSSTKVSSSESSESHRTSPTTSSESGIKSSGVEIESTSTSSFSFHETSTASTSVQISSQFVTPSSPISTVAPRSTGLNSQTESTNSSKETMSSENSASVMPSSSATSPKTGKVTSDETSSGFSRDRTTVYRMTSETPSTNEQTTLITVSSCESNSCSNTVSSAVVSTATTTINGITTEYTTWCPLSATELTTVSKLESEEKTTLITVTSCESGVCSETASPAIVSTATATVNDVVTVYSTWSPQATNKLAVSSDIENSASKASFVSEAAETKSISRNNNFVPTSGTTSIETHTTTTSNASENSDNVSASEAVSSKSVTNPVLISVSQQPRGTPASSMIGSSTASLEMSSYLGIANHLLTNSGISIFIASLLLAIV
# Assays:
# Test in all cases: glycan array binding signal (z-score within array); higher = stronger binding
# Settings in all cases: glycan notation: IUPAC condensed, linker removed
# [1] = molecular target: Gal(b1-4)GlcNAc(a1-6)Gal(b1-4)GlcNAc
# In short: (§1)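 The binding signal is a Z-score computed within each array and averaged over linkers. Arrays of the same protein sequence at different concentrations or buffers were also averaged together. Data originate from 3228 arrays in the Consortium for Functional Glycomics database, kept only where the protein sequence was available.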
# [2] = molecular target: Gal(b1-4)GlcNAc(b1-2)Man(a1-3)Man(b1-4)GlcNAc(b1-4)GlcNAc
# In short: as §1
# [3] = molecular target: Gal(b1-4)GlcNAc(b1-2)Man(a1-3)[Gal(b1-4)GlcNAc(b1-2)Man(a1-6)]Man(b1-4)GlcNAc(b1-4)GlcNAc
# In short: as §1
# [4] = molecular target: Gal(b1-4)GlcNAc(b1-2)Man(a1-3)[Gal(b1-4)GlcNAc(b1-2)Man(a1-6)]Man(b1-4)GlcNAc(b1-4)[Fuc(a1-6)]GlcNAc
# In short: as §1
# [5] = molecular target: Gal(b1-4)GlcNAc(b1-2)Man(a1-3)[GlcNAc(b1-2)Man(a1-6)]Man(b1-4)GlcNAc(b1-4)GlcNAc
# In short: as §1
# [6] = molecular target: Gal(b1-4)GlcNAc(b1-2)Man(a1-3)[Man(a1-6)]Man(b1-4)GlcNAc(b1-4)GlcNAc
# In short: as §1
# [7] = molecular target: Gal(b1-4)GlcNAc(b1-2)Man(a1-6)Man(b1-4)GlcNAc(b1-4)GlcNAc
# In short: as §1
# [8] = molecular target: Gal(b1-4)GlcNAc(b1-2)Man(a1-6)[GlcNAc(b1-2)Man(a1-3)]Man(b1-4)GlcNAc(b1-4)GlcNAc
# In short: as §1
# [9] = molecular target: Gal(b1-4)GlcNAc(b1-2)Man(a1-6)[Man(a1-3)]Man(b1-4)GlcNAc(b1-4)GlcNAc
# In short: as §1
# [10] = molecular target: Gal(b1-4)GlcNAc(b1-2)[Gal(b1-4)GlcNAc(b1-4)]Man(a1-3)[Gal(b1-4)GlcNAc(b1-2)Man(a1-6)]Man(b1-4)GlcNAc(b1-4)GlcNAc
# In short: as §1
# [11] = molecular target: Gal(b1-4)GlcNAc(b1-2)[Gal(b1-4)GlcNAc(b1-4)]Man(a1-3)[Gal(b1-4)GlcNAc(b1-2)[Gal(b1-4)GlcNAc(b1-6)]Man(a1-6)]Man(b1-4)GlcNAc(b1-4)GlcNAc
# In short: as §1
# [12] = molecular target: Gal(b1-4)GlcNAc(b1-3)Gal(b1-3)GlcNAc
# In short: as §1
# [13] = molecular target: Gal(b1-4)GlcNAc(b1-3)Gal(b1-4)Glc
# In short: as §1
# [14] = molecular target: Gal(b1-4)GlcNAc(b1-3)Gal(b1-4)GlcNAc
# In short: as §1
# [15] = molecular target: Gal(b1-4)GlcNAc(b1-3)Gal(b1-4)GlcNAc(b1-3)Gal(b1-4)GlcNAc
# In short: as §1
# [16] = molecular target: Gal(b1-4)GlcNAc(b1-3)Gal(b1-4)[Fuc(a1-3)]GlcNAc(b1-3)Gal(b1-4)[Fuc(a1-3)]GlcNAc
# In short: as §1
# [17] = molecular target: Gal(b1-4)GlcNAc(b1-3)GalNAc
# In short: as §1
# [18] = molecular target: Gal(b1-4)GlcNAc(b1-3)[Gal(b1-4)GlcNAc(b1-6)]Gal(b1-4)GlcNAc
# In short: as §1
# [19] = molecular target: Gal(b1-4)GlcNAc(b1-3)[Gal(b1-4)GlcNAc(b1-6)]GalNAc
# In short: as §1
# [20] = molecular target: Gal(b1-4)GlcNAc(b1-3)[GlcNAc(b1-6)]Gal(b1-4)GlcNAc
# In short: as §1
# [21] = molecular target: Gal(b1-4)GlcNAc(b1-6)Gal(b1-4)GlcNAc
# In short: as §1
# [22] = molecular target: Gal(b1-4)GlcNAc(b1-6)GalNAc
# In short: as §1
# [23] = molecular target: Gal(b1-4)GlcNAc(b1-6)[Gal(b1-3)]GalNAc
# In short: as §1
# [24] = molecular target: Gal3S(b1-3)GalNAc
# In short: as §1
# [25] = molecular target: Gal3S(b1-3)GlcNAc
# In short: as §1
# [26] = molecular target: Gal3S(b1-3)[Fuc(a1-4)]GlcNAc
# In short: as §1
# [27] = molecular target: Gal3S(b1-4)Glc
# In short: as §1
# [28] = molecular target: Gal3S(b1-4)Glc6S
# In short: as §1
# [29] = molecular target: Gal3S(b1-4)GlcNAc
# In short: as §1
# [30] = molecular target: Gal3S(b1-4)GlcNAc6S
# In short: as §1
binder,measurement,setting,value
B1,glycan array binding signal (z-score),[1],-0.829
same,glycan array binding signal (z-score),[2],-0.608
same,glycan array binding signal (z-score),[3],-0.515
same,glycan array binding signal (z-score),[4],0.086
same,glycan array binding signal (z-score),[5],-0.642
same,glycan array binding signal (z-score),[6],0.191
same,glycan array binding signal (z-score),[7],-0.416
same,glycan array binding signal (z-score),[8],0.034
same,glycan array binding signal (z-score),[9],-0.673
same,glycan array binding signal (z-score),[10],-0.093
same,glycan array binding signal (z-score),[11],-0.666
same,glycan array binding signal (z-score),[12],0.634
same,glycan array binding signal (z-score),[13],-0.23
same,glycan array binding signal (z-score),[14],-0.689
same,glycan array binding signal (z-score),[15],-0.604
same,glycan array binding signal (z-score),[16],1.48
same,glycan array binding signal (z-score),[17],0.523
same,glycan array binding signal (z-score),[18],-0.476
same,glycan array binding signal (z-score),[19],-0.633
same,glycan array binding signal (z-score),[20],0.34
same,glycan array binding signal (z-score),[21],-0.713
same,glycan array binding signal (z-score),[22],1.04
same,glycan array binding signal (z-score),[23],0.242
same,glycan array binding signal (z-score),[24],-0.543
same,glycan array binding signal (z-score),[25],-0.659
same,glycan array binding signal (z-score),[26],-0.698
same,glycan array binding signal (z-score),[27],0.541
same,glycan array binding signal (z-score),[28],-0.401
same,glycan array binding signal (z-score),[29],0.143
same,glycan array binding signal (z-score),[30],-0.013
